The values below come from patent publication US20240150455A1.

Amino acid sequences for entries named in this document (tags omitted).
UniProt P56747: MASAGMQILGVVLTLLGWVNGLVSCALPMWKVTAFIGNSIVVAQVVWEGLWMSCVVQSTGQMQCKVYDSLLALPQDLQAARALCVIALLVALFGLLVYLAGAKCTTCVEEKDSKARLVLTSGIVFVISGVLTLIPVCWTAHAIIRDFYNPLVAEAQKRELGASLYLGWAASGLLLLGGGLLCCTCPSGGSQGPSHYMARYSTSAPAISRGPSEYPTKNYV

First the molecules themselves.
B1: 9H3 hotspot mutant, LCDR1 NG mutated to QG and HCDR2 DG mutated to DA (antibody, V domains shown)
VH: EVQLVESGGDLVKPGGSLKLSCAASGFTFSIYGMSWVRQSPDRRLEWVATISRDASYTYFPDSVKGRFTISRDNAKNTLYLQMSSLKSEDTAMYYCVRLGDNDRGYAMDYWGQGTSVTVSS
VL: DVLMTQTPLSLPVSLGDQASISCRSSQSVVHVQGNTYLEWYLQKPGQSPRLLIYKVSNRFPGVPDRFSGSGSGTDFTLRISRVEAEDLGVYYCFQGSHVPRTFGGGTNLEIK
B2: 9H3 hotspot mutant, LCDR1 NG mutated to SG (antibody, V domains shown)
VH: B1 VH with A55G
VL: B1 VL with Q33S
B3: 9H3 hotspot mutant, LCDR1 NG mutated to QG (antibody, V domains shown)
VH: B1 VH with A55G
VL: B1 VL
B4: 9H3 hotspot mutant, LCDR1 NG mutated to NA (antibody, V domains shown)
VH: B1 VH with A55G
VL: B1 VL with Q33N, G34A

Positions count from the first letter of the chain named. No constants are given. Whether binding was seen depends on the method and setting. Some binding calls cover weakened binding; strength is not graded here.

The experiment has as its target human CLDN6 (Claudin 6) (human) (UniProt P56747). Kind of experiment: binding to CLDN6-expressing cells (FIG. 6: NEC8, Bewo).
With B1, the binding entry is “binds”.
The entry for B2 is “binds”; for B3 it is “binds”; for B4 it is “binds”.
